Test results from paper PMC11085213, “Plastid Molecular Chaperone HSP90C Interacts with the SecA1 Subunit of Sec Translocase for Thylakoid Protein Transport” (Plants, 2024).
Where two headings read alike, the source gives them in different places. Results are given in words; binding and its absence hold for the method and conditions named. Binding seen in cells or lysates may run through a third protein. Some binding calls cover weakened binding; strength is not graded here. For some of these results: Sequences can lack the tags named with a protein.

Protein sequences, listed by entry. Tags and fused reporters are not part of them. Residues count along the entry.
UniProt Q9SYI0, residues 73-1022: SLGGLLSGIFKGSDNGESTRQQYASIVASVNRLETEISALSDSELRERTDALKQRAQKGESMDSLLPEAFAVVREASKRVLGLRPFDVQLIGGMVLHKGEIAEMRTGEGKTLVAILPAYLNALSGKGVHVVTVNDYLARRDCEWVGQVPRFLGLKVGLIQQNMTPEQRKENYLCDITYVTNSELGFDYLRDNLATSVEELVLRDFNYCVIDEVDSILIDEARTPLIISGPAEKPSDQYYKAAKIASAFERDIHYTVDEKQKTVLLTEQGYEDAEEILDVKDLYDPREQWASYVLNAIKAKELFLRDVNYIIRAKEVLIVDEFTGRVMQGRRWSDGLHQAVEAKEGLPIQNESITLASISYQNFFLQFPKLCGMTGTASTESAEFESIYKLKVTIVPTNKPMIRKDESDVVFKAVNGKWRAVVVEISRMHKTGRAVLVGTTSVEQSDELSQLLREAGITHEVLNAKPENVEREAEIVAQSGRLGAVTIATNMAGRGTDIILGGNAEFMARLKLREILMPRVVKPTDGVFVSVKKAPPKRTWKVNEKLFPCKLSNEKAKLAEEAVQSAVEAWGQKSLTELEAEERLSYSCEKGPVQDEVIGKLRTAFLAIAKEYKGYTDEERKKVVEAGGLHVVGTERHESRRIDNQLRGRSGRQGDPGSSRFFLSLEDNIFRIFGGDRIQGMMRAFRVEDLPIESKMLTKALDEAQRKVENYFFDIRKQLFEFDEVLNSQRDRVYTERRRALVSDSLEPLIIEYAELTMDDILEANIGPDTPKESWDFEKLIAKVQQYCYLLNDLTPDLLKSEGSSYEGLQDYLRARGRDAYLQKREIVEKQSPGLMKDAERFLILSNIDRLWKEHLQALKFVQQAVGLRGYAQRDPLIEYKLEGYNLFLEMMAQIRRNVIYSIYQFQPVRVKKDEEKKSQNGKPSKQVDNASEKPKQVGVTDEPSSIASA
UniProt P23321, residues 1-85: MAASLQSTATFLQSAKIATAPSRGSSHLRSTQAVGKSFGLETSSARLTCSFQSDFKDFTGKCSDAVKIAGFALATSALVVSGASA

Legend:
Assay in all cases: split reporter; YFP N- and C-half fusions transiently co-expressed in N. benthamiana mesophyll cells, confocal imaging of chloroplasts after 48 h; some samples treated with 10 mM sodium azide or 30 μM geldanamycin before imaging
[1] = molecular target: SecA1-n/cYFP (Arabidopsis) (UniProt Q9SYI0)
PsbO1^1–85-n/cYFP = PsbO1^1–85-n/cYFP (UniProt P23321)
[2] = molecular target: SecA1-n/cYFP (Arabidopsis) (UniProt Q9SYI0); remark: listed apart in the source

Molecule: PsbO1^1–85-n/cYFP (from UniProt P23321 1-85) (domain or fragment)
- binding [1]: binds

Molecule: SecA1-n/cYFP (from UniProt Q9SYI0 73-1022)
- binding [1]: binds

B1: HSP90C-c/nYFP (protein, UniProt Q9SIF2 61-780)
chain: CDAAVAEKETTEEGSGEKFEYQAEVSRLLDLIVHSLYSHKEVFLRELVSNASDALDKLRFLSVTEPSLLGDGGDLEIRIKPDPDNGTITITDTGIGMTKEELIDCLGTIAQSGTSKFLKALKENKDLGADNGLIGQFGVGFYSAFLVAEKVVVSTKSPKSDKQYVWESVADSSSYLIREETDPDNILRRGTQITLYLREDDKYEFAESTRIKNLVKNYSQFVGFPIYTWQEKSRTIEVEEDEPVKEGEEGEPKKKKTTKTEKYWDWELANETKPLWMRNSKEVEKGEYNEFYKKAFNEFLDPLAHTHFTTEGEVEFRSILYIPGMGPLNNEDVTNPKTKNIRLYVKRVFISDDFDGELFPRYLSFVKGVVDSDDLPLNVSREILQESRIVRIMRKRLIRKTFDMIQEISESENKEDYKKFWENFGRFLKLGCIEDTGNHKRITPLLRFFSSKNEEELTSLDDYIENMGENQKAIYYLATDSLKSAKSAPFLEKLIQKDIEVLYLVEPIDEVAIQNLQTYKEKKFVDISKEDLELGDEDEVKDREAKQEFNLLCDWIKQQLGDKVAKVQVSNRLSSSPCVLVSGKFGWSANMERLMKAQALGDTSSLEFMRGRRILEINPDHPIIKDLNAACKNAPESTEATRVVDLLYDTAIISSGFTPDSPAELGNKIYEMMAMAVGGRWGRVEEEEESSTVNEGDDKSGETEVVEPSEVRAESDPWQD
- binding (PsbO1^1–85-n/cYFP): binds

B2: SecY1-c/nYFP (protein, UniProt Q38885 68-551)
chain: SSEASVFDPLGINPDETSGLSSIWESFVSLLSPSFESSSGNRRDKPSSGRGVAAAIEDSSIDFGDFFKGPLPGKFLKLLGFLALSRLGIYIPLGGVNREAFVGNLDQNSILSTLDTFSGGGIGRLGICSLGIVPFINAQIVFQLLAQVYPKLQDLQKKEGEAGRKKILQYTRYASVGFAIVQAIGQVFYLRPYVNDFSTEWVVSSVTLLTLGSVLTTYIGERISDLKLGNGTSLLIFTSIISYLPASFGRTTAEALQEGNYTGLGTIVVSFLLLVLGIVYVQEAERKIPLNYASRYTSKAGGLQKSAYLPFKVNSAGVMPIIFSTSSLALPATLARFTGISALKNVAFALTPGGSFYLPTNILLIAFFNYYYTFLQLDPDDVSEQLKRQGASIPLVRPGKSTALFIKTVLGRISVLGSAFLAVLAAGPAVVEQITHLTAFRGFAGTSVLILVGCATDTARKVQAEIISQKYKNIEFYELDKYDP
- binding [2]: binds
